{"sequences": {"note": "Protein sequences, listed by entry. Tags and fused reporters are not part of them. Residues count along the entry.", "UniProt Q04164, residues 42-1693": "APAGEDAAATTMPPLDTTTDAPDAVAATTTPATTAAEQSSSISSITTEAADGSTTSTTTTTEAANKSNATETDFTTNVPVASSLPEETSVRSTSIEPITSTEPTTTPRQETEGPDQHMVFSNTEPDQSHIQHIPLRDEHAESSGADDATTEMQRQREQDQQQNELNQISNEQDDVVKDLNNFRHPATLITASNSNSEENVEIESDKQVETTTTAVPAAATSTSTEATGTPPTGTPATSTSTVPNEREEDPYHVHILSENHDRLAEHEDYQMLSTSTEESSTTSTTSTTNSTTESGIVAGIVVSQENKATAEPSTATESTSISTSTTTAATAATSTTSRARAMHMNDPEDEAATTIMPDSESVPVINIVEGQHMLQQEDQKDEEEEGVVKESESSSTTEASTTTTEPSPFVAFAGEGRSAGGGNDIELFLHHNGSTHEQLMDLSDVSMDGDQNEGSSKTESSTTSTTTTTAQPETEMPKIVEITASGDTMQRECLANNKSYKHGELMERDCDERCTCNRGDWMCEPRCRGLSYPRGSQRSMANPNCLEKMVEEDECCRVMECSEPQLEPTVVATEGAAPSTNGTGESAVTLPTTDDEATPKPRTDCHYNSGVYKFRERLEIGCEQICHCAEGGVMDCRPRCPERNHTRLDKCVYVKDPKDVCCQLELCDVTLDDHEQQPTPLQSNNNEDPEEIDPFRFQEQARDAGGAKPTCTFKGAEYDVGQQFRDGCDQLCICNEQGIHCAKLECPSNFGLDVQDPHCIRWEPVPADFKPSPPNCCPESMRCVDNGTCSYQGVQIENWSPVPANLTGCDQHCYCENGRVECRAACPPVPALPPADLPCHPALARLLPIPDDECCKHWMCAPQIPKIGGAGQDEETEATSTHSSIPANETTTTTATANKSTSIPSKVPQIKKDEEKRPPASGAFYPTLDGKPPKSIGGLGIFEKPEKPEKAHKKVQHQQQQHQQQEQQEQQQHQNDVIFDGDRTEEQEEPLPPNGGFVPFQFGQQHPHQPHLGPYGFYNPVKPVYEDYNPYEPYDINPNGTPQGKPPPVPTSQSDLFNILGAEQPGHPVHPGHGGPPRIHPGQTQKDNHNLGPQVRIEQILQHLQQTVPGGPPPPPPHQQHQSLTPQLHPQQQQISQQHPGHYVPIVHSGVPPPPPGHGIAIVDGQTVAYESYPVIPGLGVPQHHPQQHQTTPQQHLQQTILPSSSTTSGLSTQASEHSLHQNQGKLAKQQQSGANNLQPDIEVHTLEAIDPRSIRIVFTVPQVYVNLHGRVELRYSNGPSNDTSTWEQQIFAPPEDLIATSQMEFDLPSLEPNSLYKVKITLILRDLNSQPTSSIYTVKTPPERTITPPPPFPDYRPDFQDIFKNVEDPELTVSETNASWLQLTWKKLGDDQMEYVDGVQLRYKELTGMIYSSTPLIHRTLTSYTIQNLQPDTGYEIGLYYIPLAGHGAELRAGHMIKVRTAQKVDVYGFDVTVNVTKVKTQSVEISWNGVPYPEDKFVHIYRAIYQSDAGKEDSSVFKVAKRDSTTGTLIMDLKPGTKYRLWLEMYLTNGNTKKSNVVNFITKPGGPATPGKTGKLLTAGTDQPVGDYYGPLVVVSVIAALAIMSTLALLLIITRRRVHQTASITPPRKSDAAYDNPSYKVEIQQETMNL"}, "source": "paper PMC10289811", "biological_target": "V5-Sas^FL (full-length Stranded at second with a V5 epitope tag) (Drosophila) (UniProt Q04164)", "assay": "affinity purification with mass spectrometry; EVs from S2 cells expressing V5-Sas^FL and from untransfected control cells lysed with nonionic detergent; lysate incubated with anti-V5-coupled magnetic beads; bead-bound proteins ranked by enrichment over the control", "note": "No constants are given. Whether binding was seen depends on the method and setting. In cells and extracts the contact can be indirect. A yes stands for co-enrichment or nearness to the bait. Other partners may have been found.", "data": [{"binder": "dArc1 (endogenous, in EVs of S2 cells) (protein, UniProt Q7K1U0 1-254) MAQLTQMTNEQLRELIEAVRAAAVGAAGSAAAAGGADASRGKGNFSACTHSFGGTRDHDVVEEFIGNIETYKDVEGISDENALKGISLLFYGMASTWWQGVRKEATTWKEAIALIREHFSPTKPAYQIYMEFFQNKQDDHDPIDTFVIQKRALLAQLPSGRHDEETELDLLFGLLNIKYRKHISRHSVHTFKDLLEQGRIIEHNNQEDEEQLATAKNTRGSKRTTRCTYCSFRGHTFDNCRKRQKDRQEEQHEE", "values": [{"measurement": "binding", "value": "binds"}]}]}
